No constants are given. Whether binding was seen depends on the method and setting. Binding seen in cells or lysates may run through a third protein. Some binding calls cover weakened binding; strength is not graded here. Blank lines part the entries; values can stand above or below the binder they belong to.
Biological target: T1, LRP10 in female E4FAD mouse brain (mouse (endogenous in E4FAD mouse brain)) (UniProt Q7TQH7)
T1 sequence: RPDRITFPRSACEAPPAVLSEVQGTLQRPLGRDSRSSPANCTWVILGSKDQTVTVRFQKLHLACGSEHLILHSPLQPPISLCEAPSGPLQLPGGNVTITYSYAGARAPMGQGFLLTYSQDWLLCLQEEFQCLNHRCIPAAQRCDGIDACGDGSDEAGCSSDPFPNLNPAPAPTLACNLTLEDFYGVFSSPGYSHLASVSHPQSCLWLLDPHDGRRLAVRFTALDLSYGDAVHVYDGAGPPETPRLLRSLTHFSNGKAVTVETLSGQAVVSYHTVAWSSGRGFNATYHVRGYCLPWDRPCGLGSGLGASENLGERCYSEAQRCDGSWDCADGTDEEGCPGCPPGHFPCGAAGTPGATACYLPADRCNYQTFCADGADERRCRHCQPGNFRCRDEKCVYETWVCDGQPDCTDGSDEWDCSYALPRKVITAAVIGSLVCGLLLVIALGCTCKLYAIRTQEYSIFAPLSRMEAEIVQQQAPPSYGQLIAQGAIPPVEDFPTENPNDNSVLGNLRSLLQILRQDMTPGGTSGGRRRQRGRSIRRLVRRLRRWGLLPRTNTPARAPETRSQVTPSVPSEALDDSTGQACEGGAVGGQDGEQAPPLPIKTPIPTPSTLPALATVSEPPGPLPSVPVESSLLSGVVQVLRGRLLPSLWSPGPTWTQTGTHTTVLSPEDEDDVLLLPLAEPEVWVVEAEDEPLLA
Assay: co-IP; pull-down by anti-LRP10 antibody from female E4FAD mouse brain lysates, LRP10 OE versus scramble controls; CD34, NBR1 and ACBD3 detected and quantified as a percentage of the control

- binding: binds
B1: ACBD3 in female E4FAD mouse brain (protein, UniProt Q8BMP6 1-525)
chain: MAAQLNVEQLEVSLDGLTLSPDSEERPGAEGAPPQTPPSSAPGNGLGSGASGQQREPGEAAAEGAAEEARRMEQHWGFGLEELYGLALRFYKIKDGKAFHPTYEEKLKFVALHKQVLLGPYNPDTSPEVGFFDVLGNDRRREWAALGNMSKEDAMVEFVKLLNKCCPLLSAYVASHRIEKEEEEKRRKAEEERRQREEEERERLQKEEEKRKREKEDRLRREEEERRRIEEERLRLEQQKQQIMAALNSQTAVQFQQYAAQQYPGNYEQQQILIRQLQEQHYQQYMQQLYQVQLAQQQAALQKQQEVVMAGASLPASSKVNTAGASDTLSVNGQAKTHTENSEKVLEPEAAEEALENGPKDSLPVIAAPSMWTRPQIKDFKEKIRQDADSVITVRRGEVVTVRVPTHEEGSYLFWEFATDSYDIGFGVYFEWTDSPNAAVSVHVSESSDEEEEEEENVTCEEKAKKNANKPLLDEIVPVYRRDCHEEVYAGSHQYPGRGVYLLKFDNSYSLWRSKSVYYRVYYTR

- binding: binds
B2: CD34 in female E4FAD mouse brain (protein, UniProt Q64314 35-382)
chain: TTETSTQGISPSVPTNESVEENITSSIPGSTSHYLIYQDSSKTTPAISETMVNFTVTSGIPSGSGTPHTFSQPQTSPTGILPTTSDSISTSEMTWKSSLPSINVSDYSPNNSSFEMTSPTEPYAYTSSSAPSAIKGEIKCSGIREVRLAQGICLELSEASSCEEFKKEKGEDLIQILCEKEEAEADAGASVCSLLLAQSEVRPECLLMVLANSTELPSKLQLMEKHQSDLRKLGIQSFNKQDIGSHQSYSRKTLIALVTSGVLLAILGTTGYFLMNRRSWSPTGERLGEDPYYTENGGGQGYSSGPGASPETQGKANVTRGAQENGTGQATSRNGHSARQHVVADTEL

Reference: PMC10280841
